Measurements reported in PubChem BioAssay AID1159584 (Peter MacCallum Cancer Centre, 2016)

Purpose: 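Knock-downs that harm CDH1-null cells more than parental MCF10A cells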 (primary screen)
System: human MCF10A breast epithelial cells, parental and CDH1-null
Reagent: siRNA against human genes
Measured: 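ATP luminescence (CellTiter-Glo) viability per line relative to mean mock wells over all plates, and the ratio of CDH1-null to parental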
Direction: CDH1-null / parental viability ratio: higher = CDH1-null cells survive relatively better than parental
The whole screen tested about 18,000 reagents; this is a random part of them. Not all columns of the deposit are shown. Not stated in the record: the amount of reagent, the time to read-out.

Depletion of ACTG1 (actin gamma 1) resulted in: CDH1-null / parental viability ratio 1.02. For PRKACB (protein kinase cAMP-activated catalytic subunit beta) the deposit lists CDH1-null / parental viability ratio 1. Knock-down of PCDHGA4 (protocadherin gamma subfamily A, 4) gave: CDH1-null / parental viability ratio 1.23. Depletion of TAL2 (TAL bHLH transcription factor 2) resulted in: CDH1-null / parental viability ratio 1.14. Silencing of PDPR (pyruvate dehydrogenase phosphatase regulatory subunit) came out at: CDH1-null / parental viability ratio 0.9. Depletion of ZNF782 (zinc finger protein 782) came out at: CDH1-null / parental viability ratio 0.97.

After knock-down of PIGW (phosphatidylinositol glycan anchor biosynthesis class W) the results were CDH1-null / parental viability ratio 1.02. With knock-down of ADD3 (adducin 3) the results were CDH1-null / parental viability ratio 1.14. Against ACTN2 (actinin alpha 2), the entry reads CDH1-null / parental viability ratio 1.24. Against ARMC1 (armadillo repeat containing 1), the values are CDH1-null / parental viability ratio 0.96. For OSCAR (osteoclast associated Ig-like receptor), the values are CDH1-null / parental viability ratio 0.81. With knock-down of PSPC1 (paraspeckle component 1), the record shows CDH1-null / parental viability ratio 1.12.

With knock-down of TPT1P8 (TPT1 pseudogene 8), the screen gave CDH1-null / parental viability ratio 1.22. FBXO24 (F-box protein 24) showed CDH1-null / parental viability ratio 0.98.
